# Measurements: the supplement of paper PMC12067093, “Discovery and optimisation of a covalent ligand for TRIM25 and its application to targeted protein ubiquitination” (Chemical Science, 2025)
# Protein sequences, listed by entry. Tags and fused reporters are not part of them. Lines headed by an entry give the natural chain unless they say otherwise; changes in a name come on top.
# UniProt P0DPB6, whole entry, looked up: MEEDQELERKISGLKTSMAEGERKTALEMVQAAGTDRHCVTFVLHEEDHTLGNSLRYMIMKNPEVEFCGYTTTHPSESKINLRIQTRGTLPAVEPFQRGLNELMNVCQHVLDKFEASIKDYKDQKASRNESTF
# UniProt P62937, whole entry, looked up: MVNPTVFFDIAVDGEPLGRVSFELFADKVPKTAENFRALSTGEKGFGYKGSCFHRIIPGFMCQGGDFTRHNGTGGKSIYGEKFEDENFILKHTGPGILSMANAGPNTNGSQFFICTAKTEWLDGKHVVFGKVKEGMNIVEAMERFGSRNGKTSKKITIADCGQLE
# UniProt Q9BY77: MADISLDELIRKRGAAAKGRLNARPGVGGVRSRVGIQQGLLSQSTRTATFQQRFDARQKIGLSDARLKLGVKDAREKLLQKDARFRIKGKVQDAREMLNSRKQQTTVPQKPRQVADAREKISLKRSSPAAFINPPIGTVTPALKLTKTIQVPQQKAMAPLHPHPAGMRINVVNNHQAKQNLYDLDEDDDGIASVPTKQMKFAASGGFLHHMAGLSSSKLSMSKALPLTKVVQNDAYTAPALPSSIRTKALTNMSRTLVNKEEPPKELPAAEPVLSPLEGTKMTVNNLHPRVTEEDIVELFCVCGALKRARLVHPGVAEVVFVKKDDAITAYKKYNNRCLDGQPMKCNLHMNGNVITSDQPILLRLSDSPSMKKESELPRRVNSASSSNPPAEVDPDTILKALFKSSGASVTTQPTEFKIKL
# UniProt P16435: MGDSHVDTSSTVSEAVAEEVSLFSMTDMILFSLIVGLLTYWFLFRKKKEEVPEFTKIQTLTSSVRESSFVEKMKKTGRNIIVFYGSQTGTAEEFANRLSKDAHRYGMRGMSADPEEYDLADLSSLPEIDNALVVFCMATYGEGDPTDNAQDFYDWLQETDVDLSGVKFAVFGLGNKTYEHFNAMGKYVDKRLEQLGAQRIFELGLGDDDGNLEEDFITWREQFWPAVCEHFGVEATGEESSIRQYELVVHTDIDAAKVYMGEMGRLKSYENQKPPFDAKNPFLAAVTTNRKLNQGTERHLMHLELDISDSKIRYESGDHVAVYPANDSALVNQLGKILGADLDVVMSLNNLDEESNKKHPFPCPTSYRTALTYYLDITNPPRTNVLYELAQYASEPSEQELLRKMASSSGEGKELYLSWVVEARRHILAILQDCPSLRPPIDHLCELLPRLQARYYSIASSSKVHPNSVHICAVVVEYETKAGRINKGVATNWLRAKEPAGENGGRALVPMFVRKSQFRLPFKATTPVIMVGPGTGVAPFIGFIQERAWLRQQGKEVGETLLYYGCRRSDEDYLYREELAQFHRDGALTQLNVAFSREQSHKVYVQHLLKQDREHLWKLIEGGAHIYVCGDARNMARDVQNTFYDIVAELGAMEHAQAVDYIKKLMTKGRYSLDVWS
# UniProt Q9H9Y6, whole entry, looked up: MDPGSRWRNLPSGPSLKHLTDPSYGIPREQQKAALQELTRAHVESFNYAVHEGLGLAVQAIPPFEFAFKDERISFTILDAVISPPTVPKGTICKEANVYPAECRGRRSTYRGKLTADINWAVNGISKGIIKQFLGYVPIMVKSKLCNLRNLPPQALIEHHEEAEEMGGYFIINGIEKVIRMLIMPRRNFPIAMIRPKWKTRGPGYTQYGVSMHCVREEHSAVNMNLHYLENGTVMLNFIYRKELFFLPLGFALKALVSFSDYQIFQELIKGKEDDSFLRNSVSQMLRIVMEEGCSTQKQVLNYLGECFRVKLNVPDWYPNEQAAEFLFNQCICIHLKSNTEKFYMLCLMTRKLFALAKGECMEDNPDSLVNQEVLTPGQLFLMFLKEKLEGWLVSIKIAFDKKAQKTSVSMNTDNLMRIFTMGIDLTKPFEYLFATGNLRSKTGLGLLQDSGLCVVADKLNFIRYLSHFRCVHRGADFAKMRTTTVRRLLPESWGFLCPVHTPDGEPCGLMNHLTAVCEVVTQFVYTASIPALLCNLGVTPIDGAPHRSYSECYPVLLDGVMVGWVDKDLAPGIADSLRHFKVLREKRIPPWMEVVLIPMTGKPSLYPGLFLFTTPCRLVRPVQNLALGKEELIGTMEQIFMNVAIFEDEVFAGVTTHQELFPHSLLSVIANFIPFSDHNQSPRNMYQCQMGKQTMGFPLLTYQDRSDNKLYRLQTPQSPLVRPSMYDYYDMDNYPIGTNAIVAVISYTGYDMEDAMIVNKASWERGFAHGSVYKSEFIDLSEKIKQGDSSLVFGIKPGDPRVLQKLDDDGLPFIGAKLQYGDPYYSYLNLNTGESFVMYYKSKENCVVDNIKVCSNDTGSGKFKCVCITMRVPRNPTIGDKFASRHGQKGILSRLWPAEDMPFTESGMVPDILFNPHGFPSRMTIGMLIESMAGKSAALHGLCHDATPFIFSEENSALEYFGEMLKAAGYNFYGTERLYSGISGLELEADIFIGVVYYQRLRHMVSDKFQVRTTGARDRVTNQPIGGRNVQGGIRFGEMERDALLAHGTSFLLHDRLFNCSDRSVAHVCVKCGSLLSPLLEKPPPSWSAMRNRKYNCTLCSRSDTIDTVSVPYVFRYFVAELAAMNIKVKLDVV
# UniProt Q8WZA1: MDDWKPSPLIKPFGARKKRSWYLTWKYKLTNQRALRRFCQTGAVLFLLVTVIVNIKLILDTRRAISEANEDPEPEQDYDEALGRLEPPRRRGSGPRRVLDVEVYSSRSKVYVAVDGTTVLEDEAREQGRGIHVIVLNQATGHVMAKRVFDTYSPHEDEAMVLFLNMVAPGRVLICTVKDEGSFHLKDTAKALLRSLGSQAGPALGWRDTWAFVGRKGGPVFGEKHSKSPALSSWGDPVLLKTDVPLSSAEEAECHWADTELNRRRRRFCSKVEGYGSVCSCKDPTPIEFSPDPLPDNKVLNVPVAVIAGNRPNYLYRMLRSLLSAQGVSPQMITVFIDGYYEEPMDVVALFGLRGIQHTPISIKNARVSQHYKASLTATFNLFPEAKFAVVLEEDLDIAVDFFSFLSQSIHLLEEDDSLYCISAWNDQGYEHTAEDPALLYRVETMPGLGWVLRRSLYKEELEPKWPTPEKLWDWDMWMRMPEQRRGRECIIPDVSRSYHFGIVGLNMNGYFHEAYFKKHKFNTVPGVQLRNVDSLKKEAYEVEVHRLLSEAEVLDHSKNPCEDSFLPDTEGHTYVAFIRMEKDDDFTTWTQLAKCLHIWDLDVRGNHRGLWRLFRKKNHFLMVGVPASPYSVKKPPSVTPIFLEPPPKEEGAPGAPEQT
# UniProt Q15054: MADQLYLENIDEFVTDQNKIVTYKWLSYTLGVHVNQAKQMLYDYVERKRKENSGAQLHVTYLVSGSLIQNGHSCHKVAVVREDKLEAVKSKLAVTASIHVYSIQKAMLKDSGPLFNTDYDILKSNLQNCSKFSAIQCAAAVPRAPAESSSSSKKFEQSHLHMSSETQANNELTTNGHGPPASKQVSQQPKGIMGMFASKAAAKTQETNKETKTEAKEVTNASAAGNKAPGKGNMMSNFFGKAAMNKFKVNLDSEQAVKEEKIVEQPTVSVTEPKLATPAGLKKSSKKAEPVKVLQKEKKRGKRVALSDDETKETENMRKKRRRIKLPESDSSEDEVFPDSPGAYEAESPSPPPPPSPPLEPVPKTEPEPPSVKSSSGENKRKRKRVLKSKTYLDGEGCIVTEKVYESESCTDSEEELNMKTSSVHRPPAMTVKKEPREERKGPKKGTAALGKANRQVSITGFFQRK
# UniProt Q9Y244: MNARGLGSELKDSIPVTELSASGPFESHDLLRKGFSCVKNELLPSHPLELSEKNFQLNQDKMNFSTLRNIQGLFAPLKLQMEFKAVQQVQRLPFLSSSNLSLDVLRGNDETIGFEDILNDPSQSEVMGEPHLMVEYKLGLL
# UniProt Q9NVU0: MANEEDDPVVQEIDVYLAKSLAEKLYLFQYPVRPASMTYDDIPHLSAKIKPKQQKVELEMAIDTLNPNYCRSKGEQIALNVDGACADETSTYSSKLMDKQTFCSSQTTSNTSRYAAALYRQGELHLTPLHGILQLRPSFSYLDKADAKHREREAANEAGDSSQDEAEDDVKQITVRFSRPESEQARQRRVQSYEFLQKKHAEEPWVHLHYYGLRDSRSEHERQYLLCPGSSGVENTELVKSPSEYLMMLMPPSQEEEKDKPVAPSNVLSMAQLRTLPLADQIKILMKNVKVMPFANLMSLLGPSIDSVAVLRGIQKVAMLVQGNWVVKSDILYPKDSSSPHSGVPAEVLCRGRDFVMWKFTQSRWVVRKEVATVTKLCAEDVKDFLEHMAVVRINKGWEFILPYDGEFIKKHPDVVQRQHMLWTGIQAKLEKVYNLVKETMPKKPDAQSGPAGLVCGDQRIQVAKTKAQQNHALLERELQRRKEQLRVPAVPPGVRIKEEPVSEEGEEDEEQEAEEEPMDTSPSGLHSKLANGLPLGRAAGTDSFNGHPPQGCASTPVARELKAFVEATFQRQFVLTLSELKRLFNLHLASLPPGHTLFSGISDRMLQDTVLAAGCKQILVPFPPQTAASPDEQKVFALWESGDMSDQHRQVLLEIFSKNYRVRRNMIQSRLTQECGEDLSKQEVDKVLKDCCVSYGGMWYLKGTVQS
# UniProt P49005: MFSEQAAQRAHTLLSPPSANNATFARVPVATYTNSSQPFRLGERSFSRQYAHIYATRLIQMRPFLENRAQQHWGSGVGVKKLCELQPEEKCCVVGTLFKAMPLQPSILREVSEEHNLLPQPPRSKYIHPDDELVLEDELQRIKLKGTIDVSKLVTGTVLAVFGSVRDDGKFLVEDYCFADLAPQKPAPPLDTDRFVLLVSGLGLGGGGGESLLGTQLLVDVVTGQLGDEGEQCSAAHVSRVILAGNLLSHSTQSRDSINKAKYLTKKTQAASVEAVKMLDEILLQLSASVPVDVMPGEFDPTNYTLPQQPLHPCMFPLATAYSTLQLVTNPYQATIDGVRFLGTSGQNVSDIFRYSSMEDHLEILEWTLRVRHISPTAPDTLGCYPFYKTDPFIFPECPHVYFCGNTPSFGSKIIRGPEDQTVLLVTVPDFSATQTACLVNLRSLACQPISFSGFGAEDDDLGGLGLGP
# UniProt P14859: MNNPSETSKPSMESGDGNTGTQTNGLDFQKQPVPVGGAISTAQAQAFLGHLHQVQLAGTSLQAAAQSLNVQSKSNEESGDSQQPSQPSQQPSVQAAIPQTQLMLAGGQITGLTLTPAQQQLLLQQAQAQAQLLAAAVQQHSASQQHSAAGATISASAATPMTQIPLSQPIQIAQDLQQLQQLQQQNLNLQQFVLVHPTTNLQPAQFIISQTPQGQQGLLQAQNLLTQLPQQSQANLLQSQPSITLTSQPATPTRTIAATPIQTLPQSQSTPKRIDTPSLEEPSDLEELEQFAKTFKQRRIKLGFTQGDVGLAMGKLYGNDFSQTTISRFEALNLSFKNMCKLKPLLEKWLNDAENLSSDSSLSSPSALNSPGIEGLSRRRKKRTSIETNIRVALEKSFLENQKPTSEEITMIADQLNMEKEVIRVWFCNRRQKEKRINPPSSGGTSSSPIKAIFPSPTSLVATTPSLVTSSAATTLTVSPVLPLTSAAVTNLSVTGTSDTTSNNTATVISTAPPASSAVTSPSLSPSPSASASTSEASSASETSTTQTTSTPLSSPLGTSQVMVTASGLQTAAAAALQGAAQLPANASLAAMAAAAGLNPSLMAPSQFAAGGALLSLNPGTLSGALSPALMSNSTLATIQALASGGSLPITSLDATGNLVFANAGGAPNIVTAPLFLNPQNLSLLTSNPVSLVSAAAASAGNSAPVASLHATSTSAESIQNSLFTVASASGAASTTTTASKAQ
# UniProt Q06203, whole entry, looked up: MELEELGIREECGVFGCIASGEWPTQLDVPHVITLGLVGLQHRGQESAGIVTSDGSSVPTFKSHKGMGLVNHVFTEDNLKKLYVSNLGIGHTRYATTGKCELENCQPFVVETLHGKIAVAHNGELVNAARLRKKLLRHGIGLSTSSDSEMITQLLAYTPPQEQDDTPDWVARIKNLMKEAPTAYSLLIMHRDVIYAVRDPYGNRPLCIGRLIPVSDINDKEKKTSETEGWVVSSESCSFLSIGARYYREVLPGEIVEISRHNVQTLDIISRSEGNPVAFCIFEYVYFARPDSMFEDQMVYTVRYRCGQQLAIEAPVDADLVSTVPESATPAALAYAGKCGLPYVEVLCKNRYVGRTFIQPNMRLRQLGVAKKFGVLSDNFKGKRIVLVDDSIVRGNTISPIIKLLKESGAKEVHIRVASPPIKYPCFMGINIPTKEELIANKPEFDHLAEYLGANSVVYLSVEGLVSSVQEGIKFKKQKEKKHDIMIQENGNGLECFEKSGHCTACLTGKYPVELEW
# UniProt Q15181: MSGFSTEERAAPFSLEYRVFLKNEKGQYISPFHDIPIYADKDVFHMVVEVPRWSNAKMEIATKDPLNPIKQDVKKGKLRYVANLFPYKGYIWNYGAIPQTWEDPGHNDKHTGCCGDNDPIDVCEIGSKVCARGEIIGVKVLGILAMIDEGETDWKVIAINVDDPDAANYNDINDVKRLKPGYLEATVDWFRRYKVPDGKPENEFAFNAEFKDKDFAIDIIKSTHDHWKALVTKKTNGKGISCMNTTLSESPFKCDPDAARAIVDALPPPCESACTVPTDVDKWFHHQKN
# The list shows a part of the results.
# Compound: CC1Cc2ccccc2N1C(=O)C1CCCN(C1)C(=O)CCl (mixture of isomers) [TRIM25 ligand 11 (diastereomer mixture)]
# Experiment: probe-labelled cysteine peptide fold change vs DMSO (competition) (log2 fold change); higher = less target engagement (more negative = stronger competition)
# Settings: 10 µM; THP-1; incubation time: 4 h
# 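Also: competitive chemoproteomic profiling in live THP-1 cells with an iodoacetamide desthiobiotin (IA-DTB) probe, comparing probe-labelled peptide intensities in compound-treated cells against DMSO-treated controls.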
row,Target,probe-labelled cysteine peptide fold change
1,POLR1D_P0DPB6_68_NPEVEFCGYTTTHPSESK (UniProt P0DPB6),-0.0947
2,PPIA_P62937-2_2_CQGGDFTR (UniProt P62937),0.165
3,POLDIP3_Q9BY77_346_CNLHMNGNVITSDQPILLR (UniProt Q9BY77),0.0111
4,POR_P16435_363_KHPFPCPTSYR (UniProt P16435),0.068
5,POP1_Q99575_745_SEVPCAPMPK (UniProt Q99575),-0.168
6,POLR2B_P30876_572_IFVNGCWVGIHK (UniProt P30876),0.18
7,POGZ_Q7Z3K3_986_VVLFALCCNTEQAAEHFR (UniProt Q7Z3K3),0.0323
8,POLR1B_Q9H9Y6_1101_KYNCTLCSR (UniProt Q9H9Y6),0.0866
9,POLG2_Q9UHN1_73_SHAELEGNGEHPEAPGSGEGSEALLEICQR (UniProt Q9UHN1),0.242
10,POMGNT1_Q8WZA1_562_NPCEDSFLPDTEGHTYVAFIR (UniProt Q8WZA1),0.214
11,POLD3_Q15054_74_KENSGAQLHVTYLVSGSLIQNGHSCHK (UniProt Q15054),0.07
12,POMP_Q9Y244_37_KGFSCVK (UniProt Q9Y244),-0.314
13,POLR3E_Q9NVU0_103_QTFCSSQTTSNTSR (UniProt Q9NVU0),0.0298
14,POR_P16435_566_EVGETLLYYGCR (UniProt P16435),0.139
15,POLR2B_P30876_221_YAYTGECR (UniProt P30876),0.0492
16,POLR1A_O95602_1332_CLRPEDILR (UniProt O95602),-0.117
17,POGZ_Q7Z3K3_781+782_YSTCCSR (UniProt Q7Z3K3),-0.037
18,POLR2B_P30876_984_MTIGHLIECLQGK (UniProt P30876),-0.0996

row,Target,probe-labelled cysteine peptide fold change
1,POLD2_P49005_92_CCVVGTLFK (UniProt P49005),0.0834
2,POU2F1_P14859-2_4_MLDCSDYVLDSR (UniProt P14859),-0.206
3,POMGNT1_Q8WZA1_254_TDVPLSSAEEAECHWADTELNR (UniProt Q8WZA1),-0.234
4,POP1_Q99575_959_VTLHCSR (UniProt Q99575),0.232
5,POP1_Q99575_819_QLSAWCGPSSEDSR (UniProt Q99575),-0.0379
6,POP1_Q99575_530_CQDNEK (UniProt Q99575),-0.0863
7,PPAT_Q06203_207_DPYGNRPLCIGR (UniProt Q06203),0.114
8,POLR1C_O15160_214_PVHDDILIAQLRPGQEIDLLMHCVK (UniProt O15160),-0.00122
9,POLD2_P49005_83_KLCELQPEEK (UniProt P49005),-0.095
10,POLR2J_P52435_31_VPNACLFTINK (UniProt P52435),-0.175
11,POLR2C_P19387_107_CNEDQTR (UniProt P19387),0.504
12,POLR3H_Q9Y535_74_CVVFHPFLDEILIGK (UniProt Q9Y535),0.0435
13,POLR2A_P24928_109_CVCFFCSK (UniProt P24928),-0.311
14,POLR2B_P30876_357_EMLPHVGVSDFCETK (UniProt P30876),-0.02
15,PPA1_Q15181_123_HTGCCGDNDPIDVCEIGSK (UniProt Q15181),-0.0217
16,PPA1_Q15181_270+274_AIVDALPPPCESACTVPTDVDK (UniProt Q15181),0.00395
17,POLDIP3_Q9BY77_301_VTEEDIVELFCVCGALKR (UniProt Q9BY77),-0.169
18,POLA1_P09884_686_NATCGR (UniProt P09884),-0.0669

# Same assay, conditions: 50 µM; THP-1; incubation time: 4 h
row,Target,probe-labelled cysteine peptide fold change
1,POLR1D_P0DPB6_68_NPEVEFCGYTTTHPSESK (UniProt P0DPB6),-0.2
2,PPIA_P62937-2_2_CQGGDFTR (UniProt P62937),0.13
3,POLDIP3_Q9BY77_346_CNLHMNGNVITSDQPILLR (UniProt Q9BY77),-0.121
4,POR_P16435_363_KHPFPCPTSYR (UniProt P16435),0.0389
5,POP1_Q99575_745_SEVPCAPMPK (UniProt Q99575),-0.363
6,POLR2B_P30876_572_IFVNGCWVGIHK (UniProt P30876),0.297
7,POGZ_Q7Z3K3_986_VVLFALCCNTEQAAEHFR (UniProt Q7Z3K3),0.139
8,POLR1B_Q9H9Y6_1101_KYNCTLCSR (UniProt Q9H9Y6),0.0739
9,POLG2_Q9UHN1_73_SHAELEGNGEHPEAPGSGEGSEALLEICQR (UniProt Q9UHN1),-0.158
10,POMGNT1_Q8WZA1_562_NPCEDSFLPDTEGHTYVAFIR (UniProt Q8WZA1),0.00763
11,POLD3_Q15054_74_KENSGAQLHVTYLVSGSLIQNGHSCHK (UniProt Q15054),0.119
12,POMP_Q9Y244_37_KGFSCVK (UniProt Q9Y244),-0.466
13,POLR3E_Q9NVU0_103_QTFCSSQTTSNTSR (UniProt Q9NVU0),-0.0693
14,POR_P16435_566_EVGETLLYYGCR (UniProt P16435),0.156
15,POLR2B_P30876_221_YAYTGECR (UniProt P30876),0.019
16,POLR1A_O95602_1332_CLRPEDILR (UniProt O95602),0.148
17,POGZ_Q7Z3K3_781+782_YSTCCSR (UniProt Q7Z3K3),0.201
18,POLR2B_P30876_984_MTIGHLIECLQGK (UniProt P30876),-0.0463

row,Target,probe-labelled cysteine peptide fold change
1,POLD2_P49005_92_CCVVGTLFK (UniProt P49005),0.165
2,POU2F1_P14859-2_4_MLDCSDYVLDSR (UniProt P14859),-0.0109
3,POMGNT1_Q8WZA1_254_TDVPLSSAEEAECHWADTELNR (UniProt Q8WZA1),-0.213
4,POP1_Q99575_959_VTLHCSR (UniProt Q99575),0.0265
5,POP1_Q99575_819_QLSAWCGPSSEDSR (UniProt Q99575),-0.107
6,POP1_Q99575_530_CQDNEK (UniProt Q99575),0.0606
7,PPAT_Q06203_207_DPYGNRPLCIGR (UniProt Q06203),0.222
8,POLR1C_O15160_214_PVHDDILIAQLRPGQEIDLLMHCVK (UniProt O15160),-0.0368
9,POLD2_P49005_83_KLCELQPEEK (UniProt P49005),-0.0982
10,POLR2J_P52435_31_VPNACLFTINK (UniProt P52435),-0.0946
11,POLR2C_P19387_107_CNEDQTR (UniProt P19387),-0.101
12,POLR3H_Q9Y535_74_CVVFHPFLDEILIGK (UniProt Q9Y535),0.168
13,POLR2A_P24928_109_CVCFFCSK (UniProt P24928),0.0346
14,POLR2B_P30876_357_EMLPHVGVSDFCETK (UniProt P30876),-0.0744
15,PPA1_Q15181_123_HTGCCGDNDPIDVCEIGSK (UniProt Q15181),-0.178
16,PPA1_Q15181_270+274_AIVDALPPPCESACTVPTDVDK (UniProt Q15181),-0.283
17,POLDIP3_Q9BY77_301_VTEEDIVELFCVCGALKR (UniProt Q9BY77),-0.0607
18,POLA1_P09884_686_NATCGR (UniProt P09884),0.143
